Measurements published in the supplement of paper PMC4371806.
In all, about 2,300 compounds were measured (“plate-normalized OD600 growth (mean of duplicates)”: median about 0.29, lowest 2% from about 0.22 on). Some of the results follow.

System: Escherichia coli BW25113
Assay: plate-normalized OD600 growth (mean of duplicates) (OD600 (normalized)); higher = more growth (less inhibition)
Settings: 10 µM
Experimental: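 E. coli BW25113 in LB (100 µl, 96-well, no shaking) was exposed to 10 µM of each compound from a ~30,000-member library and grown at 37°C for 24 h or 15°C for 48 h, in duplicate. Growth was read as OD600 and the duplicate ODs were normalized across screening plates to correct plate-to-plate variation. Hits were >3σ below the mean OD600 at 15°C and <2σ below the mean at 37°C.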

Row | SMILES | plate-normalized OD600 growth (temperature: 15°C, 48 h) | plate-normalized OD600 growth (temperature: 37°C, 24 h)
1 | Cc1ccc(-c2nc(-c3c[nH]c4ccccc34)[nH]c2-c2ccc(C)cc2)cc1 | 0.243 | 0.618
2 | NC(=O)/C(=N/O)C1=NC2(CCCCC2)Cc2ccccc21 | 0.248 | 0.653
3 | Cc1c(Br)sc2ccc(Cl)cc12 | 0.247 | 0.612
4 | COc1ccc(C(=O)[C@@H]2[C@@H](c3cccs3)C(C#N)(C#N)[C@H]3C=Cc4ccccc4N23)cc1 | 0.251 | 0.63
5 | O=C(Nc1ccccc1)Nc1ccc(C(F)(F)F)cc1Br | 0.234 | 0.583
6 | CCOc1ccc(S(=O)(=O)NCC23CC4CC(CC(C4)C2)C3)cc1 | 0.267 | 0.614
7 | CC(C)(C)NC(=O)c1cc(NC(=O)C(F)(F)F)cc(NC(=O)C(F)(F)F)c1 | 0.234 | 0.605
8 | NC(=O)C1CCN(CCC(=O)Nc2ccccc2)CC1 | 0.208 | 0.651
9 | O=C(Nc1ccccc1)C1CCN(S(=O)(=O)c2ccc(Oc3ccccc3)cc2)CC1 | 0.251 | 0.614
10 | CCOC(=O)C1=C(N)N(c2ccc([N+](=O)[O-])cc2)C2=C(C(=O)CCC2)C1c1ccc(C(C)(C)C)s1 (stereo not given) | 0.246 | 0.613
11 | COc1ccccc1Oc1ccc(C(F)(F)F)cc1NC(=O)NC(=O)c1ccccc1F | 0.265 | 0.619
12 | N#Cc1ncc(C(F)(F)F)cc1Oc1ccc(Cl)cc1 | 0.248 | 0.603
13 | O=C(Nc1ccccc1)c1cc(S(=O)(=O)N2CCCc3ccccc32)cs1 | 0.225 | 0.627
14 | COc1ccc(Cc2nnc(-c3ccc(-c4cccs4)s3)o2)cc1 | 0.258 | 0.615
15 | Cc1nc(-c2ccccn2)nc(NCCNc2cccc(C(F)(F)F)n2)c1Cl | 0.257 | 0.626
16 | CCCN(CCC)c1nc(C)nc2c1sc(=S)n2C | 0.265 | 0.625
17 | O=c1[nH]cnc2c1ncn2C1OC(CCl)C(O)C1O (stereo not given) | 0.235 | 0.642
18 | Nn1cnn(Cc2ccccc2)c1=O | 0.251 | 0.627
19 | Cc1cc(C)cc(NC(=O)C(C)Sc2ccccc2)c1 (stereo not given) | 0.253 | 0.608
20 | CC(=O)c1ccc(N2CCCCC2)c(NC(S)Nc2cc(Cl)ccc2Cl)c1 (stereo not given) | 0.255 | 0.621
21 | FC(F)(F)COc1nc(N/N=C/c2cccnc2)nc(N2CCCCC2c2ccccn2)n1 (stereo not given) | 0.24 | 0.574
22 | COC(=O)CCC(NC(=O)c1ccccc1)C(=O)OC (stereo not given) | 0.247 | 0.621
23 | COC(=O)c1ccc(C(CC(=O)c2ccccc2)Nc2ccc(C)cc2)cc1 (stereo not given) | 0.24 | 0.604
24 | O=C(O)c1cccc(N2C(=O)C3C4C=CC(CC4)C3C2=O)c1 (stereo not given) | 0.238 | 0.613

Row | SMILES | plate-normalized OD600 growth (temperature: 15°C, 48 h) | plate-normalized OD600 growth (temperature: 37°C, 24 h)
25 | CO/N=C(\C(=O)O)c1csc(Nc2nc(Nc3ccc(OC)cc3)nc(Nc3cc(/C(=N\OC)C(=O)O)cs3)n2)c1 | 0.248 | 0.619
26 | COc1ccc(NC(=O)/C=C/c2cccc(Oc3ccccc3)c2)cc1 | 0.245 | 0.633
27 | COC(=O)c1ccc(NC(=O)CCCC(=O)O)cc1 | 0.249 | 0.648
28 | CC(=O)NC1(C(F)(F)F)NC(=O)N(Cc2ccccc2)C1=O (stereo not given) | 0.248 | 0.628
29 | Cc1noc(C)c1C(=O)N1CCOCC1 | 0.27 | 0.62
30 | C/C(=C\C(=O)Nc1ccc(F)cc1)Nc1ccc(F)cc1 | 0.253 | 0.613
31 | CCN(CC)c1ccc(/C=N/NC(=O)COc2ccc(Cl)cc2)cc1 | 0.255 | 0.611
32 | O=C(O)CC1=C(Nc2ccccc2)C(=O)N(c2ccccc2)C1c1ccc(Cl)cc1 (stereo not given) | 0.257 | 0.667
33 | CCOC(=O)c1c(SC)[nH]c2c(C(F)(F)F)cccc2c1=O | 0.244 | 0.627
34 | CC(C)C(C(=O)Nc1ccc(C(=O)/C=C/c2ccccn2)cc1)c1ccc(Cl)cc1 (stereo not given) | 0.25 | 0.667
35 | COC(=O)c1ccc([N+](=O)[O-])cc1N | 0.249 | 0.625
36 | Nc1nc(Sc2cc(-n3cccc3)c(Cl)cc2[N+](=O)[O-])n[nH]1 | 0.228 | 0.61
37 | O=C(CSc1nc2ccc(N3C(=O)c4ccc([N+](=O)[O-])cc4C3=O)cc2s1)NC1CC1 | 0.254 | 0.625
38 | Cn1c2c(c3c1CCCC3)CCCC2 | 0.232 | 0.621
39 | Nc1cc(-c2ccccc2)nn1Cc1ccccc1 | 0.225 | 0.613
40 | CCOC(=O)c1[nH]c(Cc2[nH]c(C(=O)OCC)c(C)c2C)c(C)c1C | 0.216 | 0.604
41 | O=C(Nc1nc(-c2ccccc2)cs1)C1CC(O)CN1C(=O)Oc1ccccc1 (stereo not given) | 0.263 | 0.648
42 | Nc1ccccc1C(=O)Nc1cc(C(=O)O)cc(C(=O)O)c1 | 0.232 | 0.625
43 | Cc1ccccc1C(=O)N(CC#N)CC#N | 0.259 | 0.57
44 | COc1cc(/C=C2/C(=N)N3N=C(C(C)C)SC3=NC2=O)ccc1OC(=O)c1ccc(F)cc1 | 0.247 | 0.611
45 | CC(C)c1ccc(OCC(=O)NC(C)c2ccccc2)cc1 (stereo not given) | 0.245 | 0.602
46 | Cc1nc(-c2nnc(Sc3ccc(C(F)(F)F)cc3[N+](=O)[O-])n2C)cs1 | 0.234 | 0.631
47 | CCCCOc1ccccc1NS(=O)(=O)c1cc(C)sc1C | 0.234 | 0.602
48 | CC12NC(=O)NC1(C)NC(=O)N2 (stereo not given) | 0.255 | 0.609

Reformatted: results already given.
Row,SMILES,"plate-normalized OD600 growth (temperature: 15°C, 48 h)","plate-normalized OD600 growth (temperature: 37°C, 24 h)"
25,CO/N=C(\C(=O)O)c1csc(Nc2nc(Nc3ccc(OC)cc3)nc(Nc3cc(/C(=N\OC)C(=O)O)cs3)n2)c1,0.248,0.619
26,COc1ccc(NC(=O)/C=C/c2cccc(Oc3ccccc3)c2)cc1,0.245,0.633
27,COC(=O)c1ccc(NC(=O)CCCC(=O)O)cc1,0.249,0.648
28,CC(=O)NC1(C(F)(F)F)NC(=O)N(Cc2ccccc2)C1=O (stereo not given),0.248,0.628
29,Cc1noc(C)c1C(=O)N1CCOCC1,0.27,0.62
30,C/C(=C\C(=O)Nc1ccc(F)cc1)Nc1ccc(F)cc1,0.253,0.613
31,CCN(CC)c1ccc(/C=N/NC(=O)COc2ccc(Cl)cc2)cc1,0.255,0.611
32,O=C(O)CC1=C(Nc2ccccc2)C(=O)N(c2ccccc2)C1c1ccc(Cl)cc1 (stereo not given),0.257,0.667
33,CCOC(=O)c1c(SC)[nH]c2c(C(F)(F)F)cccc2c1=O,0.244,0.627
34,CC(C)C(C(=O)Nc1ccc(C(=O)/C=C/c2ccccn2)cc1)c1ccc(Cl)cc1 (stereo not given),0.25,0.667
35,COC(=O)c1ccc([N+](=O)[O-])cc1N,0.249,0.625
36,Nc1nc(Sc2cc(-n3cccc3)c(Cl)cc2[N+](=O)[O-])n[nH]1,0.228,0.61
37,O=C(CSc1nc2ccc(N3C(=O)c4ccc([N+](=O)[O-])cc4C3=O)cc2s1)NC1CC1,0.254,0.625
38,Cn1c2c(c3c1CCCC3)CCCC2,0.232,0.621
39,Nc1cc(-c2ccccc2)nn1Cc1ccccc1,0.225,0.613
40,CCOC(=O)c1[nH]c(Cc2[nH]c(C(=O)OCC)c(C)c2C)c(C)c1C,0.216,0.604
41,O=C(Nc1nc(-c2ccccc2)cs1)C1CC(O)CN1C(=O)Oc1ccccc1 (stereo not given),0.263,0.648
42,Nc1ccccc1C(=O)Nc1cc(C(=O)O)cc(C(=O)O)c1,0.232,0.625
43,Cc1ccccc1C(=O)N(CC#N)CC#N,0.259,0.57
44,COc1cc(/C=C2/C(=N)N3N=C(C(C)C)SC3=NC2=O)ccc1OC(=O)c1ccc(F)cc1,0.247,0.611
45,CC(C)c1ccc(OCC(=O)NC(C)c2ccccc2)cc1 (stereo not given),0.245,0.602

(next part)

Row | SMILES | plate-normalized OD600 growth (temperature: 15°C, 48 h) | plate-normalized OD600 growth (temperature: 37°C, 24 h)
49 | CCC(=O)Nc1ccc(N=Cc2cc(OC)c(OC)c(OC)c2)cc1 | 0.242 | 0.604
50 | CCCSc1ccc2nc(N=Cc3cc(OC)c(OC)c(OC)c3)[nH]c2c1 | 0.228 | 0.651
51 | CC(=O)C1C(=O)CC(C)(O)C(C(C)=O)C1c1ccc(Br)cc1 (stereo not given) | 0.25 | 0.616
52 | CC(C)(C)OC(=O)NC1CCN(C(=O)c2ccc(Cl)cc2Cl)CC1 | 0.244 | 0.629
53 | COC(=O)CN1C(=O)C2(C(C#N)=C(N)Oc3n[nH]c(C)c32)c2ccccc21 (stereo not given) | 0.207 | 0.65
54 | CC(CCc1ccccc1)Nc1cc(N2CCN(S(=O)(=O)c3ccc(Cl)cc3)CC2)ccc1[N+](=O)[O-] (stereo not given) | 0.251 | 0.608
55 | O=C(Nc1ccc(Oc2ccc(NC(=O)C(F)(F)F)c(NC(=O)C(F)(F)F)c2)cc1)C(F)(F)F | 0.23 | 0.622
56 | CN(/C=C/[N+](=O)[O-])c1ccccc1 | 0.248 | 0.616
57 | O=C(Nc1ccccc1C(=O)NC1CCCCNC1=O)c1cccs1 (stereo not given) | 0.253 | 0.638
58 | O=C(NC(c1ccccc1)c1c(O)ccc2ccccc12)C1CCCCC1 (stereo not given) | 0.248 | 0.603
59 | COC(=O)c1cc(Cl)sc1N | 0.244 | 0.597
60 | C(=C(c1ccccc1)c1ccccc1)N1CCC1 | 0.24 | 0.599
61 | Cc1cc(CN2CC(C)OC(C)C2)cc(C)c1O (stereo not given) | 0.253 | 0.573
62 | CC1CCN(CCC(=O)Nc2ccc(Cl)cc2)CC1 | 0.261 | 0.643
63 | CC(=O)C1(C)OC(N)=C(C#N)C(c2ccccc2)C1(C#N)C#N (stereo not given) | 0.236 | 0.634
64 | CC(C)(C)c1cc(SCc2c(C(=O)O)nnn2-c2nonc2N)cc(C(C)(C)C)c1O | 0.259 | 0.62
65 | Cc1nnn(-c2nonc2N)c1C(=O)NNC(=O)c1ccc(Cl)c(Cl)c1 | 0.243 | 0.606
66 | C=CCc1cccc2cc(C(=O)NC3CC(C)(C)NC(C)(C)C3)c(=O)oc12 | 0.229 | 0.653
67 | C=CCN1C(=O)CCNc2ccccc21 | 0.245 | 0.621
68 | Cc1ccc2nc(Nc3nc(C)c4ccccc4n3)[nH]c(=O)c2c1 | 0.253 | 0.612
69 | Cc1ccc2c(c1)N(CCO)C(C)(C)CC2C (stereo not given) | 0.211 | 0.651
70 | CC(=O)CSc1nsc(SCC(C)=O)c1C#N | 0.235 | 0.609
71 | O=C(Nc1ccc2oc(-c3cccnc3)nc2c1)c1cccs1 | 0.229 | 0.605
72 | Cc1ccc(S(=O)(=O)N=C(Nc2ccc(O)c(Cl)c2)c2ccccc2)cc1 | 0.232 | 0.618

Row | SMILES | plate-normalized OD600 growth (temperature: 15°C, 48 h) | plate-normalized OD600 growth (temperature: 37°C, 24 h)
73 | CC(=O)CC(C)(C)S(=O)(=O)c1ccc(C)c(C)c1 | 0.242 | 0.605
74 | CC(C)c1ncc(C(O)c2cccc3ccccc23)n1C (stereo not given) | 0.249 | 0.63
75 | Cc1ccc(N=Cc2cc(C)cc([N+](=O)[O-])c2O)c(Cl)c1 | 0.238 | 0.625
76 | N#CC1=C(N)S[C@@H](C(=O)c2ccccc2)[C@@H]1c1cccnc1 | 0.249 | 0.612
77 | CC(=Nc1ccccc1S(=O)(=O)O)c1c(O)c2ccccc2n(-c2ccccc2)c1=O | 0.254 | 0.623
78 | O=C1C(=Cc2ccc(Oc3ccc([N+](=O)[O-])cn3)cc2)C(=O)c2ccccc21 | 0.253 | 0.659
79 | Cn1c(CSc2ccccc2)n[nH]c1=S | 0.243 | 0.623
80 | O=C(O)C(C(=O)/C=C/c1ccc2c(c1)OCO2)=C1SCCS1 | 0.257 | 0.621
81 | Cc1nnc(SCC(=O)Nc2ccccn2)[nH]c1=O | 0.257 | 0.623
82 | COc1ccccc1/C=N/Nc1nc(Nc2cccc(Br)c2)nc(N2CCOCC2)n1 | 0.259 | 0.627
83 | Cn1c(=O)n(C)c2cc(/C=N/Nc3ncc(F)c(N4CCOCC4)n3)ccc21 | 0.229 | 0.61
84 | COc1cc(C(=O)Nc2c(C)n(C)n(-c3ccccc3)c2=O)c([N+](=O)[O-])cc1OC | 0.263 | 0.655
85 | CCOC(=O)CC(=O)CSc1nnc(N)s1 | 0.233 | 0.616
86 | CCNCC(O)COc1ccc(C)cc1OC (stereo not given) | 0.23 | 0.617
87 | Cc1cc(C)c(OCC(=O)N2N=C3CCCCC3C2(O)C(F)(F)F)c(C)c1 (stereo not given) | 0.23 | 0.641
88 | COc1cccc(C(=O)CSc2nnc(Cn3cnc([N+](=O)[O-])n3)n2C)c1 | 0.245 | 0.655
89 | O=c1[nH]nc(-c2ccc(N3CCN(CCO)CC3)c([N+](=O)[O-])c2)c2ccccc12 | 0.242 | 0.616
90 | O=[N+]([O-])c1ccc(OCCO)c([N+](=O)[O-])c1 | 0.25 | 0.618
91 | COc1nsc2cc([N+](=O)[O-])cc(N)c12 | 0.248 | 0.631
92 | CCOC(=O)C1=C(C)NC(=O)NC1c1ccc(OS(=O)(=O)c2ccc(C)cc2)cc1 (stereo not given) | 0.231 | 0.624
93 | CCOC(=O)CC(NS(=O)(=O)c1ccc(NC(C)=O)cc1)c1ccc(OCC)cc1 (stereo not given) | 0.251 | 0.593
94 | OC1CCC(Nc2ncc3nc(Nc4c(F)cc(F)cc4F)n([C@H]4CCOC4)c3n2)CC1 (stereo not given in full) | 0.24 | 0.658
95 | CCCCN1/C(=C2/SC(=S)N(CC)C2=O)Sc2ccc(OC)cc21 | 0.252 | 0.607
